{
  "source": "patent US8637461B2",
  "about": "“Method of diagnosing and treating oxidative stress-impaired wound healing” (Kuwait University, priority 2011, dated 2014)",
  "assay": "Body weight and fasting plasma parameters in diabetic and hypercortisolemic rats",
  "type": "in vivo, rat",
  "description": "All animal procedures were performed in accordance with the NIH Guidance for the Care and Use of Laboratory Animals. The current study used, respectively the GK and Dexamethasone-treated rats as models for diabetes and hypercortisolemia. Dexamethasone was administered subcutaneously at a dose of 2.5 μg/kg body weight in the morning (8:00 AM) and in the evening (8:00 PM) for a duration of four weeks before wounding and this form of therapy continued during the course of healing. […] Weight and age-matched female Wistar rats (Kuwait University breeding colony) served as the corresponding controls. All of the animals were maintained under standard conditions with 12 hours on/off light cycle, commercial diet, and water ad libitum. GK rats destined for wounding were initially matched with regard to body weight (e.g., 230 to 250 g), and plasma levels of glucose, free fatty acids and insulin. These indices are commonly used to reflect the severity of the diabetic state.\nAnimals used for IGF-1 sensitivity (n=6/group) and wound healing (n=8) studies were partitioned into five study groups including control, diabetic, hypercortisolemic, diabetic+EUK and hypercortisolemic+EUK. The EUK-134 was administered for duration of four weeks before wound induction and it continued during the course of healing.",
  "data": [
    {"smiles": "COc1cccc(C=NCCN=Cc2cccc(OC)c2[O-])c1[O-].[Cl-].[Mn+3]", "note": "[EUK-134]", "values": [
      {"measurement": "BW (body weight)", "setting": "dexamethasone-treated (hypercortisolemic) rats + EUK-134 12.5 mg/kg ip every other day", "result": "240 ± 15", "unit": "g"},
      {"measurement": "BW (body weight)", "setting": "diabetic (GK) rats + EUK-134 12.5 mg/kg ip every other day", "result": "245 ± 17", "unit": "g"}
    ]}
  ]
}
